This test has as its target GST-Twist-WR domain (UniProt Q15672). In words: pull-down.

Protein sequences, listed by entry. Tags and fused reporters are not part of them.
UniProt Q15672: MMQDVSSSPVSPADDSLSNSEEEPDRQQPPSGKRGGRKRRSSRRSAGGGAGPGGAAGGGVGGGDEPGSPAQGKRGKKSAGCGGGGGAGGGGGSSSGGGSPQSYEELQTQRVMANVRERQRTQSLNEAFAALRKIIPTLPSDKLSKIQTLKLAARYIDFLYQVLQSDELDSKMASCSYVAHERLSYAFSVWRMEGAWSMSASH
UniProt O95863: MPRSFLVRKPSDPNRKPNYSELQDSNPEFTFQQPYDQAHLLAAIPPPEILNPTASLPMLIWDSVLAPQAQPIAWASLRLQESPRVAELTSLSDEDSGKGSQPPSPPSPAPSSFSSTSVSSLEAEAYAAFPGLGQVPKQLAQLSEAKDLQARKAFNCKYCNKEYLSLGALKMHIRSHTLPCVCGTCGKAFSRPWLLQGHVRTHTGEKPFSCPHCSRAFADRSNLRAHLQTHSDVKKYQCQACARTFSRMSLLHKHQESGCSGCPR

No constants are given. Whether binding was seen depends on the method and setting. In cells and extracts the contact can be indirect. A result given as binding can be weak or reduced; the word gives no strength.

Take “Snail (endogenous, Sum1315 cells) (from UniProt O95863 1-264)”: the binding entry was “binds”.

In the case of “Snail-C-Flag (from UniProt O95863 1-264)”, the binding result was “binds”.

Regarding “Twist (endogenous, Sum1315 cells) (from UniProt Q15672 1-202)”, the binding result is on record as “binds”.
